Assay: general procedure: Fmoc solid-phase peptide synthesis; (2-Cl)Trt chloride resin (MeLeu-(2-Cl)Trt resin 3; H-MeIle-(2-Cl)Trt resin for 11 and 12); HATU/DIEA; DIC/HOAt; DIC/HOBt; DIC/DMAP for the ester bond
Details: whole synthesis; for isolated yield: from resin

Substance	isolated yield (scale 0.100 mmol)	isolated mass (scale 0.100 mmol)	further results
[MeAla3, MeLys(Me)5, MeAla6, D-MeLeu9]-Coibamide A	10%	13.4 mg	–
[MeAla3, MeLys(Me)5, MeAla6, D-Tyr(Me)10]-Coibamide A	3%	4.4 mg	–
[MeAla3, MeLys(Me)5, MeAla6, Phe(4-CF3)10]-Coibamide A	25%	32.8 mg	–
[MeAla3, D-MeLys5, MeAla6]-Coibamide A	13%	17.2 mg	–
[Bph10]-Coibamide A	–	–	isolated yield (scale 0.300 mmol): 6.1%; isolated mass (scale 0.300 mmol): 26.5 mg
[MeAla3, MeLys(Me)5, MeAla6, Phe(4-Ot-Bu)10]-Coibamide A	24%	31.7 mg	–
[MeAla3, MeLys(Me)5, MeAla6, Phe(4-OCF3)10]-Coibamide A	16%	21.8 mg	–
[MeAla3, MeLys(Me)5, MeAla6, 3-Pal10]-Coibamide A	23%	31.3 mg	–
[MeAla3, MeOrn(Me)5, MeAla6]-Coibamide A	22%	27.6 mg	–
[MeAla3, MeLys(Me)5, MeAla6, Phe(4-CN)10]-Coibamide A	18%	23.9 mg	–
[MeAla3, MeLys(Me)5, MeAla6, Phe(4-NO2)10]-Coibamide A	13%	17.4 mg	–
[MeAla3, MeLys(Me)5, Ala6]-Coibamide A	7%	8.8 mg	–
[MeAla3, MeLys(Me)5, MeAla6, 2-Nal10]-Coibamide A	4%	5.5 mg	–
[MeAla3, Leu4, MeLys(Me)5, MeAla6]-Coibamide A	4%	5.4 mg	–
[MeAla3, MeLys(Me)5, MeAla6, 2-Pal10]-Coibamide A	5%	7.1 mg	–
[Ala3, MeLys(Me)5, MeAla6]-Coibamide A	5%	6.9 mg	–
[MeAla3, MeLys(Me)5, MeAla6, D-Ala8]-Coibamide A	3%	3.2 mg	–
[MeAla3, MeLys5, MeAla6]-Coibamide A	20%	25.6 mg	–
[MeAla^3, MeLys(Me)^5, MeAla^6]-CbA	–	–	isolated mass: 5.9 mg; isolated yield (scale of the general procedure 0.100 mmol (0.300 mmol for 11 and 12)): 4.4%
[MeAla3, MeLys(Me)5, MeAla6, Phe10]-Coibamide A	3%	4.2 mg	–
[MeAla3, D-MeLys(Me)5, MeAla6]-Coibamide A	8%	10.3 mg	–
[MeAla3, MeAla6, Bph10]-Coibamide A	–	–	isolated yield (scale 0.300 mmol): 7.3%; isolated mass (scale 0.300 mmol): 30.3 mg
[MeAla3, Lys(Me)5, MeAla6]-Coibamide A	7%	8.5 mg	–
[MeAla3, D-MeOrn(Me)5, MeAla6]-Coibamide A	7%	9.5 mg	–

— publication PMC8762706 (ACS Medicinal Chemistry Letters, 2021)
